Data: PubChem BioAssay AID1671190 (National Center for Advancing Translational Sciences (NCATS), 2021)
Hit rate of the full screen: of about 580,000 compounds, about 6,100 (1.1%) were called active. The shares of active, inactive and inconclusive entries below differ from those in the screen. The call rests on the fitted dose curve; in most records, active means well fitted inhibition curve with a large enough effect; inconclusive means small, poorly fitted or top-dose-only effect, or another doubt; inactive means no such curve, though single readings can be large or run the other way. A potency beside an inconclusive call is a rough fit, not a confirmed value.

The chains behind the UniProt entries cited, without tags or fusion partners. Where a name states a change or a piece, a line headed by the entry shows the natural chain unless it says otherwise.
UniProt P18054: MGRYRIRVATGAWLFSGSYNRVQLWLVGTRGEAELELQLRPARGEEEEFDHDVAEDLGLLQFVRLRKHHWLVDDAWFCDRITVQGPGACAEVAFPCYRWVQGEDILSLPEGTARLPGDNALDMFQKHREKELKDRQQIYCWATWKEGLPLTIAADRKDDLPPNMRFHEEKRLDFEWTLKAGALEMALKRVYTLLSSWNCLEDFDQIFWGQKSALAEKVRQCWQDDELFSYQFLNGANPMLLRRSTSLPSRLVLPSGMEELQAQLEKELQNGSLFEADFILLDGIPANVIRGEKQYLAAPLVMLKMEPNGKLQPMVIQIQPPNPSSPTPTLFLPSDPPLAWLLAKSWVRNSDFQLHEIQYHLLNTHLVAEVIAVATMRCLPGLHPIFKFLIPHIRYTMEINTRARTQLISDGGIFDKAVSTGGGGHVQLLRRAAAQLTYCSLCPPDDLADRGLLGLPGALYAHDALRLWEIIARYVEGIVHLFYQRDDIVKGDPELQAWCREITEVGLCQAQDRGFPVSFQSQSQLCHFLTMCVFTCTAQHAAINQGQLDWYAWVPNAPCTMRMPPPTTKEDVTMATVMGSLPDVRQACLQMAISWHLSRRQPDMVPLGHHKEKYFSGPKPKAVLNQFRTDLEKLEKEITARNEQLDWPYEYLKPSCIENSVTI

What follows are compounds tested against Polyunsaturated fatty acid lipoxygenase ALOX12 (Homo sapiens) (UniProt P18054) (assay: Primary qHTS assay for inhibitors of human arachidonate 12S-lipoxygenase (ALOX12): Round 2). Settings: purified 12hLO, xylenol orange hydroperoxide absorbance; activity change, negative = inhibition: at 108 µM (top of the series) unless noted.
Procedure, shortened: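 Hydroperoxide product was detected by ferrous iron/xylenol orange as the 573 to 405 nm absorbance ratio. Arachidonic acid at 40 uM (final) was turned over for 30 min at room temperature by 150 nM human 12hLO, pH 7.0 Hepes buffer, after 15 min compound preincubation.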
On the % scale 0 is the no-effect control and ±100 the full control effect; potency means the concentration at half of the fitted maximal effect.

Row | SMILES | Potency | activity change, negative = inhibition
1 | C=C(C)CN(CC)C(=O)c1c(C)oc2c1CN(Cc1cccc(F)c1)CC2 | inconclusive: 22.4 µM [inhibitor, full curve, poor fit] | –
2 | COC(=O)C1=C(C)N(Cc2ccccc2)C(=NCc2ccccc2)N[C@H]1c1ccccc1 | inconclusive: 56.2 µM [inhibitor, partial curve, poor fit] | –
3 | CN(CC(=O)Nc1ccc(Cl)c(C(F)(F)F)c1)C(=O)Cn1cc([N+](=O)[O-])ccc1=O | inconclusive: 44.7 µM [inhibitor, partial curve, poor fit] | –
4 | Cn1nc(C(C)(C)C)cc1C(=O)Sc1cccc(Br)c1 | inconclusive: 35.5 µM [inhibitor, single point] | –
5 | CCCCCn1c(COc2ccc(Cl)cc2)n[nH]c1=S | inconclusive: 0.316 µM [inhibitor, full curve, poor fit] | –
6 | Cc1ccc(NC(=O)c2sc(-n3nc(C)c(Cc4ccc(Cl)cc4)c3C)nc2C)cc1 | – | inactive: 0.827%
7 | CC(Sc1nncn1-c1ccccc1)C(=O)Nc1ccc(N(C)C)cc1 (configuration not stated) | – | inactive: -3.03%
8 | COC(=O)C1CCCCN1C(=O)c1cccc(OC2CCN(C(=O)C3CC3)CC2)c1 (configuration not stated) | – | inactive: -7.93%
9 | CNCC#CCOc1ccc(OC)cc1 | inconclusive: 1 µM [inhibitor, full curve, poor fit] | –
10 | O=C(O)c1ccc(Nc2c3ccccc3nc3ccccc23)cc1 | inconclusive: 35.5 µM [inhibitor, partial curve, poor fit] | –
11 | Oc1ccc(O)cc1 | inconclusive: 50.1 µM [inhibitor, partial curve, poor fit] | –
12 | COc1cc(/C=C2\SC(=S)N(CCCCC(=O)O)C2=O)ccc1OS(=O)(=O)c1ccc(C)cc1 | inconclusive: 0.891 µM [inhibitor, full curve, poor fit] | –
13 | CCn1c(SCC(=O)N2CCCC(C)C2)nnc1-c1ccc(S(=O)(=O)N2CCN(C)CC2)cc1 (configuration not stated) | inconclusive: 200 µM [inhibitor, partial curve, poor fit] | –
14 | O=C(CN1CCN(c2ccccc2F)CC1)Nc1ccc2c(c1)CCC2 | inconclusive: 50.1 µM [inhibitor, partial curve, poor fit] | –
15 | CC(=O)c1ccc(F)c(-c2cc(C)cc3c2OC(CNC(=O)C(C)n2nc(C)cc2C)C3)c1 (configuration not stated) | inconclusive: 1.58 µM [inhibitor, full curve, poor fit] | –
16 | C=CCn1cccc(C(=O)Nc2ccc(C)cc2)c1=O | inconclusive: 35.5 µM [inhibitor, single point] | –
17 | COc1ccc(OC)c2[nH]c(=O)c(CCNC(=S)NC(C)(C)C)cc12 | inconclusive: 50.1 µM [inhibitor, partial curve, poor fit] | –
18 | CCN(CC(O)COc1ccc(C(C)(C)c2ccccc2)cc1)C12CC3CC(CC(C3)C1)C2 (configuration not stated) | – | inactive: -34.5%
19 | Cc1cccc(-c2cc(C(=O)O)c3ccc(Br)cc3n2)c1 | inconclusive: 35.5 µM [inhibitor, partial curve] | –
20 | Cc1ccc(-c2n[nH]c(=S)n2C)cc1 | inconclusive: 44.7 µM [inhibitor, single point] | –
21 | Cc1noc(C)c1CSCC(=O)Nc1nc2c(F)cc(F)cc2s1 | inconclusive: 44.7 µM [inhibitor, single point] | –

Single entries from the results shown.
Entry for `C=CCn1cccc(C(=O)Nc2ccc(C)cc2)c1=O` under Potency: inconclusive: 35.5 µM [inhibitor, single point]
Entry for `CNCC#CCOc1ccc(OC)cc1` under Potency: inconclusive: 1 µM [inhibitor, full curve, poor fit]
Entry for `O=C(O)c1ccc(Nc2c3ccccc3nc3ccccc23)cc1` under Potency: inconclusive: 35.5 µM [inhibitor, partial curve, poor fit]

(further entries)

Row | SMILES | Potency | activity change, negative = inhibition
22 | O=C(COc1ccccc1[N+](=O)[O-])Nc1ccccc1N1CCCC1 | – | inactive: -4.48%
23 | Cc1cc(N/C(=C\C(=O)c2ccccc2)c2ccccc2)ccc1Br | – | inactive: -7%
24 | Cc1ccc(NC(=S)NC(=O)C2CCCCC2)c(Br)c1 | active: 31.6 µM | –
25 | CCN(CC)c1ccc(/C=N/NC(=S)Nc2cccc(C)c2)cc1 | inconclusive: 35.5 µM [inhibitor, partial curve, poor fit] | –
26 | CCCCn1c2ccccc2c2nnc(SCC(=O)Nc3ccc(NC(C)=O)cc3)nc21 | inconclusive: 89.1 µM [inhibitor, partial curve, poor fit] | –
27 | O=C(N/N=C\c1ccc(CNS(=O)(=O)c2ccc(Cl)cc2)o1)C(=O)Nc1ccc(Oc2ccccc2)cc1 | – | inactive: -12.1%
28 | Cc1cccc(/C=C(/C(=O)N(C)Cc2ccsc2)c2cccs2)c1 | – | inactive: -19%
29 | CC(C)CC(=O)N1CCC(NC(=O)c2ccc3ccccc3n2)CC1 | inconclusive: 1.26 µM [inhibitor, partial curve, poor fit] | –
30 | CCOCCCn1c(=O)c2ccccc2n2c(=S)[nH]nc12 | active: 3.98 µM | –
31 | O=S(=O)(Nc1ccc2oc3ccccc3c2c1)c1cccs1 | inconclusive: 2.24 µM [inhibitor, full curve, poor fit] | –
32 | Cc1oc2ccc(O)c(CN(C)Cc3ccccc3)c2c1C(=O)Nc1cccc(Cl)c1C | inconclusive: 56.2 µM [inhibitor, partial curve, poor fit] | –
33 | Cc1ccc(-c2nn(-c3ccccc3)cc2/C=C2\SC(=S)N(CC(=O)O)C2=O)cc1 | inconclusive: 100 µM [inhibitor, single point] | –
34 | COc1ccc(-c2noc(CSc3nnc(Cc4ccccc4)n3-c3cccc(C)c3)n2)cc1OC | – | inactive: 11.2%
35 | CCc1nc2nc(C)cc(Nc3ccc(Br)cc3F)n2n1 | inconclusive: 39.8 µM [inhibitor, partial curve, poor fit] | –
36 | COc1cccc2sc3ccc(C#CC4(N)CCCCC4)cc3c(=O)c12 | – | inactive: -6.94%
37 | O=C(Nc1onc2c1CCCC2)c1ccc(Cl)cc1 | inconclusive: 112 µM [inhibitor, partial curve, poor fit] | –
38 | CCOC(=O)N1CCN(CC(=O)Nc2nc3ccc(OC)cc3s2)CC1 | active: 44.7 µM | –
39 | NS(=O)(=O)c1ccc(Cl)cc1[N+](=O)[O-] | inconclusive: 50.1 µM [inhibitor, single point] | –
40 | NS(=O)(=O)c1ccc(N/N=C/c2c(F)cccc2Cl)c([N+](=O)[O-])c1 | inconclusive: 56.2 µM [inhibitor, partial curve, poor fit] | –
41 | COc1cc2nc(N3CCN(C(=O)C4CCCO4)CC3)nc(N)c2cc1OC (configuration not stated) | inconclusive: 35.5 µM [inhibitor, partial curve, poor fit] | –
42 | CC(=O)c1cccc(NC(=O)c2ccc3c(=O)n(-c4cccc(Cl)c4)cnc3c2)c1 | inconclusive: 44.7 µM [inhibitor, partial curve, poor fit] | –
